PubChem BioAssay AID504582 (Broad Institute, 2011)
In all, about 340,000 compounds went through this assay and about 2,300 (0.68%) were called active. Inconclusive results, whose numbers are uncertain, are shown with a selection of clear calls. Cut-off read from the data, not from the text of the source: active = growth rescue above about 28% (passing the limit was not always enough); inconclusive = no clear call, values can overlap the other calls.

Assay: rescue of yeast from PfHsp40 toxicity, primary screen, S. cerevisiae, ATP luminescence (AID 504582);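 note: yeast W303a lacking pdr1 and pdr3 grown in galactose medium; growth measured after three days at 30 °C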
Conditions: S. cerevisiae expressing PfHsp40, growth rescue, at 12.5 µM, stronger effect = higher value

SMILES | growth rescue
CCOC(=O)c1sc2nc(CC(=O)OC)nc(NCCN(CC)CC)c2c1C | active: 74.2%
Oc1c(C(Nc2ccccn2)c2cccnc2)cc(Cl)c2cccnc12 (stereo unspecified) | active: 318%
CC(C)C(C)NC(=O)CN1C(=O)NC2(CCc3ccccc3C2)C1=O (stereo unspecified) | inconclusive: 83.9%
COc1ccc(NC(=O)CN(C)C(=O)c2ccc3c(c2)S(=O)(=O)N=C2CCCCCN23)cc1 | inconclusive: 35.9%
COc1ccc(CC(NC(C)=O)C(=O)NC2CCN(S(=O)(=O)c3ccc(NC(C)=O)cc3)CC2)cc1OC (stereo unspecified) | inconclusive: 53.4%
Cc1ccc(C)c(N2CC(C(=O)Nc3nccs3)CC2=O)c1 (stereo unspecified) | inconclusive: 40.8%
O=C(NC1(C(F)(F)F)C(=O)Nc2c1c(=O)[nH]c(=O)n2-c1ccccc1)c1ccncc1 (stereo unspecified) | inconclusive: 29.1%
COc1ccc(C(NC(=O)c2cccnc2)c2cc(Cl)c3cccnc3c2O)cc1OC (stereo unspecified) | inconclusive: 166%
CCC(=O)c1ccc(N2CCN(C(=O)c3ccc(Br)cc3)CC2)c(F)c1 | inconclusive: 33.3%
CC(=O)Nc1cccc(OCc2ccc(F)cc2)c1 | active: 69.8%
O=C(O)CCCC(=O)N1CCN(c2nc(-c3ccccc3Cl)c3cc(Br)ccc3n2)CC1 | active: 47.3%
C/C(=N\NS(C)(=O)=O)c1ccccc1 | inconclusive: 38.4%
Cc1nc(Cl)c(C#N)cc1-c1ccccc1 | inactive: -0.577%
O=C(O)c1ccc(C(=O)Nc2cccc3ccccc23)c(C(=O)O)c1 | inconclusive: 33.1%
O=C(COc1c(Br)cc(Br)c2cccnc12)N1CCc2ccccc2C1 | inactive: 11.6%
Cn1c(N)c(C(=O)COC(=O)c2cc(S(=O)(=O)NCc3ccccc3)ccc2O)c(=O)n(C)c1=O | inconclusive: 27.7%
CCOc1ccc(C(C)NC(=S)NCc2ccc(Cl)cc2)cc1 (stereo unspecified) | inconclusive: 99.5%
CNc1nc2c(N)ncnc2n1[C@H]1O[C@@H](CO)[C@H](O)[C@@H]1O | inconclusive: 37.1%
CC(C)(C)c1nn2cnnc2n(/N=C/c2ccccc2)c1=O | inconclusive: 41.3%

Rewritten as comma-separated lines: three of the compounds above.
SMILES,growth rescue
Oc1c(C(Nc2ccccn2)c2cccnc2)cc(Cl)c2cccnc12 (stereo unspecified),active: 318%
COc1ccc(NC(=O)CN(C)C(=O)c2ccc3c(c2)S(=O)(=O)N=C2CCCCCN23)cc1,inconclusive: 35.9%
COc1ccc(C(NC(=O)c2cccnc2)c2cc(Cl)c3cccnc3c2O)cc1OC (stereo unspecified),inconclusive: 166%

(listing goes on)

SMILES | growth rescue
O=C1[C@H]2[C@H](C=CC[C@H]2C(=O)N2CCN(c3ccccc3)CC2)CCN1Cc1ccc(Cl)c(Cl)c1 | inconclusive: 56.4%
COc1ccc(C(NC(C)=O)c2cc(Cl)c3cccnc3c2O)cc1OC (stereo unspecified) | inconclusive: 145%
COc1ccc(-c2cc(-c3ccc(OC)c(OC)c3)n[nH]2)c(O)c1 | inconclusive: 26.6%
CCC1=NN2C(=N)/C(=C\c3ccc(OCCOc4ccccc4OC)cc3)C(=O)N=C2S1 | inconclusive: 26.9%
COc1cccc(-c2ccc3ncnc(NCc4cc(C)cs4)c3c2)c1 | inconclusive: 32.7%
COc1ccc(NCc2nc3ccccc3n2CCOc2ccc(C)cc2)cc1 | active: 75.1%
O=C(CCn1cnc(-c2ccccc2)c1-c1ccccc1)N/N=C/c1ccccc1O | inconclusive: 31.1%
Cc1cc(C)c2oc(C(=O)NCc3ccccc3)cc(=O)c2c1 | inconclusive: 32.4%
Clc1ccc2oc(-c3ccccc3)nc2c1 | inactive: -0.173%
O=C(N/N=C/c1c(O)n(Cc2ccc(F)cc2)c(=O)[nH]c1=O)c1ccccc1O | active: 55.4%
Cc1cc(/C=N/n2c(COc3ccccc3)nc3ccccc3c2=O)c(O)c([N+](=O)[O-])c1 | inconclusive: 44.4%
NC(=O)N=Nc1c2[nH]c3ccccc3nc-2c2ccccc12 | active: 45.3%
CCOc1ccc2nc(NC(=O)c3c([N+](=O)[O-])cnn3CC)sc2c1 | inconclusive: 37.2%
O=C(COc1ccccc1)Nc1nccs1 | active: 56.8%
Cc1ccc(-n2nnnc2C(Cl)c2nnnn2-c2ccc(C)cc2)cc1 | inconclusive: 401%
CC/C(=N/NC(=O)c1ccccc1O)c1c(C)[nH]n(-c2ccccc2)c1=O | active: 399%
O=C(NNC(=S)Nc1ccc(Cl)c(Cl)c1)c1ccccn1 | inconclusive: 161%
Nc1nnnn1/N=C/C(Br)=C/c1ccccc1 | inconclusive: 53.8%
CC(=O)c1ccc(NC(=S)NCc2ccc(Cl)cc2Cl)cc1 | inconclusive: 239%

SMILES | growth rescue
COc1ccc(CC(=O)Nc2cc(S(=O)(=O)N3CCCCC3)ccc2C)cc1OC | inconclusive: 43.8%
CC(C)(c1ccc(O)c([N+](=O)[O-])c1)c1ccc(O)c([N+](=O)[O-])c1 | inconclusive: 32.4%
O=C(Cc1ccc(Br)cc1)NCCc1ccc(Cl)cc1Cl | inconclusive: 31.5%
CCCc1cc(N2CCCC(C(=O)NCC)C2)n2ncnc2n1 (stereo unspecified) | inactive: 0.0465%
COc1ccc(S(=O)(=O)N2CCNC(=O)C2)cc1Br | inconclusive: 56.2%
CCn1c(=O)c(C(=O)Nc2cccnc2)c(O)c2ccccc21 | inconclusive: 81.4%
Cc1ccccc1CCN(C(=O)CN1C(=O)c2ccccc2S1(=O)=O)C(C(=O)NCC1CCCO1)c1ccncc1 (stereo unspecified) | inconclusive: 34.4%
CCNC(=O)CC1C(=O)N(c2cccc(C)c2)C(=O)N1CCC(C)C (stereo unspecified) | inactive: 1.15%
CCCCCC#CCC#CCC#CCC#CCCCC(=O)O | inconclusive: 39.2%
O=C1c2ccccc2C(=O)c2c(/C=C/N3CCCCC3)ccnc21 | inconclusive: 31.7%
CC(C)CC(=O)Nc1cccc(-c2nc3ccccc3o2)c1 | inactive: 0.125%
Cc1ccc(C)c(-n2nnnc2SCC(=O)NCCC2=CCCCC2)c1 | inactive: 0.565%
Cn1c2ccc(F)cc2c2nc3ccccc3nc21 | inconclusive: 48.3%
O=C1C(=O)c2ccccc2C(O)=C1CCCCl | inconclusive: 178%
O=c1c(-c2cccc3ccccc23)[n+]([O-])c2ccccc2n1O | active: 80.6%
COc1ccc(CC2(C)OC(c3ccc([N+](=O)[O-])cc3)=NN2C(C)=O)cc1 (stereo unspecified) | inconclusive: 53.7%
COc1cc2nc(CC(C)C)n(NC(=O)c3ccccc3)c(=O)c2cc1OC | inactive: 0.065%
Cc1ccc([C@@H]2CC=C(C(=O)O)[C@H](c3cccc(Cl)c3)N2S(=O)(=O)c2ccccc2C)cc1 | inconclusive: 33.3%
